This data set can be described thus: Determination of therapeutic index. As to conditions: Cumulative convulsion dose/(20×ED50AA). The data set is classed as in vivo, rat.
As to `COc1ccc(CCCO[C@H]2CCCCC2N2CCOCC2)cc1OC.Cl` (stereo partly drawn) [Compound 19, 4-{(1R,2R)/(1S,2S)-2-[3-(3,4-dimethoxyphenyl)-propoxy]cyclohexyl}morpholine hydrochloride], the Therapeutic index is reported as 3.6.

`COc1ccc(CCO[C@H]2CCCCC2N2CCCC2)cc1OC.Cl` (stereo partly drawn) [Compound 10, 1-{(1R,2R)/(1S,2S)-2-[2-(3,4-dimethoxyphenyl)-ethoxy]cyclohexyl}-pyrrolidine hydrochloride]: the Therapeutic index worked out at 4.4.

Turning to `COc1ccc(CCOC2CCCC[C@H]2N2CC=CC2)cc1OC.Cl` (stereo partly drawn) [Compound 16, 1-{(1R,2R)/(1S,2S)-2-[2-(3,4-dimethoxyphenyl)-ethoxy]cyclohexyl}-2,5-dihydro-1H-pyrrole hydrochloride], the Therapeutic index was found to be 0.9.

Values taken from patent US20070099983A1, “Aminocyclohexyl ether compounds and uses thereof” (Cardiome Pharma Corp., priority 2003, published 2007).
